Results from PubChem BioAssay AID504848 (National Center for Advancing Translational Sciences (NCATS), 2011).
About 1,400 (61%) of roughly 2,300 compounds were called active. So high a share suggests a set chosen from earlier hits. Inconclusive results, whose numbers are uncertain, are shown with a selection of clear calls. Calls follow the shape of the dose curve; as a rule, active = well fitted inhibition curve with a large enough effect; inconclusive = small, poorly fitted or top-dose-only effect, or effect the other way; inactive = no such curve, though single readings can be large or run the other way. Potencies of inconclusive entries are doubtful fits and often do not repeat.

Experiment: Confirmation screen for delayed death inhibitors of the malarial parasite plastid, 96 hour incubation; also: nearly all actives have a fitted effect of over 60% in size
Conditions: P. falciparum luciferase growth in erythrocytes; series mostly up to 28.7 µM; activity change, negative = inhibition: at the top concentration
Text: The goal of this screen is to discover new antimalarial compounds that act by inhibiting the development of the apicoplast in the malarial parasite Plasmodium falciparum. The biochemical processes that make this organelle essential for erythrocytic stage parasites are not well understood. However, antibiotics, such as azithromycin and tetracycline, which target the apicoplast translational machinery, have a potent antimalarial effect. […] We have developed a cell-based assay that measures parasite growth based on the expression of an integrated copy of a firefly luciferase reporter. To detect small molecules that cause this "delayed death phenotype, erythrocytes infected with the luciferase-expressing parasites were incubated with compounds for either one or two generations, corresponding to 48 and 96 hours, respectively. Compounds that inhibit parasite growth in the second generation, but not the first, should be enriched in antimalarials that target the apicoplast. Growth inhibition is detected by a decrease in luciferase activity. MLPCN Grant: R21 NS059500 Assay Provider: David Fidock and Eric Ekland, Columbia University Keywords: NIH Roadmap, MLPCN, MLI, MLSMR, qHTS, NCGC, qHTS, malaria, luciferase, viability
Four microliters of culture medium (RPMI 1640 with 0.5% w/v Albumax (GIBCO), 24 mM sodium bicarbonate and 10 ug/mL gentamycin) were dispensed by a Multi-drop Combi into white solid 1536-well plates (Grenier) and 23 nL compound was added by a pin tool. Four microliters of infected erythrocytes (2% hematocrit, 0.1% parasitemia final concentration) in culture medium were dispensed and the plates incubated for 96 hours at 37 C in 5% CO2. Two microliters of luciferase detection reagent was added and luminescence was detected by a ViewLux (PerkinElmer) reader
% is scaled to controls: 0 for no effect and ±100 for the full control effect; potency is read from the fitted curve at half-maximal effect.

Structure (SMILES)	Potency	activity change, negative = inhibition
C[C@]12CCC3C(CCC4=CC(O)CC[C@@]43/C=N/O)C1(O)CCC2C1=CC(=O)OC1 (some centres not stated)	inconclusive: 3.98 µM [inhibitor, partial curve, poor fit]	
Cc1ccc(C(C)C)c(OCC(=O)N2CCN(Cc3nc4cc([N+](=O)[O-])ccc4n3C)CC2)c1		inactive: -11.1%
C[C@]12CC[C@H](O)C[C@H]1CC[C@@H]1[C@@H]2CC[C@]2(C)[C@@H](C3=CC(=O)OC3)CC[C@]12O	inconclusive: 0.794 µM [inhibitor, full curve]	
COc1ccc(C(=O)N/N=C/C23CC[C@@H](O)CC2(O)CC[C@@H]2[C@@H]3CCC3(C)C(C4=CC(=O)OC4)CCC23O)cc1 (some centres not stated)	inconclusive: 14.1 µM [inhibitor, partial curve, poor fit]	
O=c1oc2ccccc2c(O)c1[C@H]1c2ccc(O)cc2Oc2c1c(=O)oc1ccccc21		inactive: 18%
C[C@@H]1O[C@@H](O[C@H]2C[C@@H](O)[C@]3(CO)[C@@H]4C(CC[C@]3(O)C2)[C@@]2(O)CC[C@H](C3COC(=O)C3)[C@@]2(C)C[C@H]4O)[C@H](O)[C@H](O)[C@H]1O (some centres not stated)		inactive: -24%
CC12CC[C@H]3[C@@H](CCC4(O)C[C@H](O)CCC34/C=N/NC(=O)c3ccccc3O)C1(O)CCC2C1=CC(=O)OC1 (some centres not stated)	inconclusive: 11.2 µM [inhibitor, single point]	
C[C@@H]1C[C@@H]([C@H](O)CC2CC(=O)NC(=O)C2)C(=O)[C@@H](C)C1	active: 0.794 µM	
C[C@]12CC[C@H]3C(CCC4(O)CC(O)CC[C@]34C=O)C1=CC[C@H]2c1ccc(=O)oc1 (some centres not stated)	inconclusive: 7.94 µM [inhibitor, partial curve]	
CC1=CC2/C=C(\C)CCC(O)C(O)/C=C/C(=O)C23C(=O)NC(CC(C)C)C3C1C (configuration not stated)	active: 12.6 µM	
Brc1cc2c(cc1CN1CCN(c3ccccc3)CC1)OCCO2	inconclusive: 12.6 µM [inhibitor, single point]	
COc1cc(C(=O)N/N=C/C23CC[C@@H](O)CC2(O)CC[C@@H]2[C@@H]3CCC3(C)C(C4=CC(=O)OC4)CCC23O)ccc1O (some centres not stated)		inactive: -32%
CCC(C(=O)N1CCC2(CC1)OCCO2)n1c2ccccc2c2nc(=O)cc(C)n21 (configuration not stated)	active: 11.2 µM	
COc1cccc(-n2c(CN3CCN(C)CC3)nc3ccc([N+](=O)[O-])cc3c2=O)c1	active: 15.8 µM	
CCOc1cc2c(cc1OCC)-n1cccc1C(c1ccccc1F)NC2 (configuration not stated)	active: 5.01 µM	
O=C(Oc1ccc2ccccc2c1Cl)N1CCCC1	inconclusive: 1.58 µM [activator, full curve]	
O=[N+]([O-])c1ccc(NC2CCCC2)c2ccncc12	inconclusive: 11.2 µM [inhibitor, partial curve]	
Cc1ccc(-c2nc(NC(=O)c3ccc(S(=O)(=O)N(CCC#N)CCC#N)cc3)sc2-c2ccccc2)cc1	active: 11.2 µM	
Cc1ccc(N2C(=O)NC(=O)/C(=C\C=C\c3ccco3)C2=O)cc1		inactive: -0.857%
O=C(CN1CC=C(c2ccccc2)CC1)NC(=O)NCc1ccccc1		inactive: -23%
CCN1CCN(Cc2nc3ccc([N+](=O)[O-])cc3c(=O)n2-c2ccccc2F)CC1	inconclusive: 2.51 µM [activator, partial curve, poor fit]	
CCCCCCn1c(=O)c(C(=O)Nc2ncccc2O)c(O)c2ccccc21	inconclusive: 7.08 µM [inhibitor, partial curve]	
Clc1ccccc1CN1CCNCC1	inconclusive: 5.01 µM [inhibitor, single point]	
CC12CC[C@H]3[C@@H](CCC4(O)C[C@H](O)CCC34/C=N/NC(=O)c3ccccc3F)C1(O)CCC2C1=CC(=O)OC1 (some centres not stated)		inactive: -94.9%

Structure (SMILES)	Potency	activity change, negative = inhibition
CC[n+]1c(-c2ccccc2)c2cc(N)ccc2c2ccc(N)cc21	active: 0.0282 µM	
COc1ccc(N(CC(=O)Nc2cccc(SC)c2)S(C)(=O)=O)cc1Cl	inconclusive: 14.1 µM [inhibitor, single point]	
C=C1C(O)[C@@H]2O[C@]3(CC[C@H](/C=C/C(C)[C@@H]4CC(C)=CC5(O[C@H](C[C@@](C)(O)C(=O)O)CCC5O)O4)O3)CC[C@H]2O[C@@H]1C(O)CC(C)[C@H]1OC2(CCCCO2)CCC1C (some centres not stated)	active: 0.0631 µM	
Cn1c(=O)oc2cc(NC(=O)CCl)ccc21	active: 0.794 µM	
CN(C)[C@@H]1C(=O)C(C(N)=O)=C(O)[C@@]2(O)C(=O)C3=C(O)c4c(O)cccc4[C@@](C)(O)C3[C@H](O)C12 (some centres not stated)	inconclusive: 3.16 µM [inhibitor, full curve, poor fit]	
CCCCN=C[C@]12CCC(O)CC1(O)CCC1[C@@H]2CC[C@]2(C)[C@H](C3C=CC(=O)O3)CCC12O (some centres not stated)	inconclusive: 5.01 µM [inhibitor, partial curve]	
CCOP(=O)(OCC)C(O)c1ccc(OC)cc1OC (configuration not stated)		inactive: 9.71%
CN1[C@@H](CC(=O)c2ccccc2)CCC[C@H]1C[C@H](O)c1ccccc1	inconclusive: 4.47 µM [inhibitor, full curve, poor fit]	
Cn1cc([N+](=O)[O-])c(C(=O)Nc2ccc3c(C(F)(F)F)cc(=O)oc3c2)n1	inconclusive: 0.251 µM [inhibitor, full curve, poor fit]	
Cc1cc2ccccn2c1C(C[N+](=O)[O-])c1c(F)cccc1Cl (configuration not stated)	active: 12.6 µM	
COc1ccc(Oc2cc(NC(=O)c3nn(C)cc3[N+](=O)[O-])cc([N+](=O)[O-])c2)cc1	inconclusive: 15.8 µM [inhibitor, single point]	
CC(C)N(CC#CCC1(O)c2ccccc2-c2ccccc21)C(C)C	inconclusive: 15.8 µM [inhibitor, single point]	
Cc1ccccc1CCNCc1cc2cccc(C)c2[nH]c1=O	inconclusive: 6.31 µM [inhibitor, partial curve, poor fit]	
O=C1NC(=O)N(c2ccccc2)C(=O)/C1=C/C=C/c1ccco1		inactive: -22.6%
C=C1C(=O)O[C@H]2C[C@@H](C)[C@@H]3C=CC(=O)[C@@]3(C)C[C@H]12	inconclusive: 0.0224 µM [inhibitor, full curve, poor fit]	
Cn1c(O)c(C=NC2C(=O)C3(C)CCC2C3(C)C)c(=O)n(C)c1=O (configuration not stated)		inactive: 9.58%
CCOC(=O)COc1ccc2c(c1)c(C(C)=O)c(C)n2Cc1ccccc1	inconclusive: 0.708 µM [inhibitor, full curve, poor fit]	
O=C1C2CCCN2C(c2cccs2)N1c1ccc(Cl)cc1 (configuration not stated)	inconclusive: 11.2 µM [inhibitor, partial curve]	
CC(=O)N1CC(=O)Nc2ccc(Cl)cc2C1c1ccccc1 (configuration not stated)		inactive: -21.6%
COC(=O)C1=C(c2ccc(F)cc2OCc2ccccc2)C[C@@H]2CC[C@H]1N2C(=O)NCc1ccccc1Br	inconclusive: 5.62 µM [inhibitor, full curve, poor fit]	
CC(C)c1ccc(N2C(=O)NC(=O)/C(=C\C=C\c3ccco3)C2=O)cc1		inactive: -9.71%
C[C@]12CC[C@H](O)C[C@H]1CC[C@@H]1C2CC[C@]2(C)[C@@H](C3=CC(=O)OC3)[C@@H](O)C[C@]12O (some centres not stated)	inconclusive: 0.126 µM [inhibitor, full curve, poor fit]	
CCOC(=O)C1=C(NC(=S)NC(=O)c2ccccc2)c2ccccc2CC12CCCC2	inconclusive: 5.01 µM [inhibitor, partial curve, poor fit]	

Random excerpt: 3 compounds from above
Structure (SMILES)	Potency	activity change, negative = inhibition
CCOP(=O)(OCC)C(O)c1ccc(OC)cc1OC (configuration not stated)		inactive: 9.71%
COc1ccc(Oc2cc(NC(=O)c3nn(C)cc3[N+](=O)[O-])cc([N+](=O)[O-])c2)cc1	inconclusive: 15.8 µM [inhibitor, single point]	
Cn1cc([N+](=O)[O-])c(C(=O)Nc2ccc3c(C(F)(F)F)cc(=O)oc3c2)n1	inconclusive: 0.251 µM [inhibitor, full curve, poor fit]	
